Laboratory results: PMC9303266

Amino acid sequences for entries named in this document (tags omitted). A change or cut given only in a name is not applied to a line headed by its entry.
UniProt O45149: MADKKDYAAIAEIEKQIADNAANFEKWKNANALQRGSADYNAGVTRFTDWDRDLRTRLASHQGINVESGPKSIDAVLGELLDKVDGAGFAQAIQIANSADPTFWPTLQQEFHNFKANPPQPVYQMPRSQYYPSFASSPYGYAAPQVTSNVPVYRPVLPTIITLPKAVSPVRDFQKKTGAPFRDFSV
UniProt Q9GYR5: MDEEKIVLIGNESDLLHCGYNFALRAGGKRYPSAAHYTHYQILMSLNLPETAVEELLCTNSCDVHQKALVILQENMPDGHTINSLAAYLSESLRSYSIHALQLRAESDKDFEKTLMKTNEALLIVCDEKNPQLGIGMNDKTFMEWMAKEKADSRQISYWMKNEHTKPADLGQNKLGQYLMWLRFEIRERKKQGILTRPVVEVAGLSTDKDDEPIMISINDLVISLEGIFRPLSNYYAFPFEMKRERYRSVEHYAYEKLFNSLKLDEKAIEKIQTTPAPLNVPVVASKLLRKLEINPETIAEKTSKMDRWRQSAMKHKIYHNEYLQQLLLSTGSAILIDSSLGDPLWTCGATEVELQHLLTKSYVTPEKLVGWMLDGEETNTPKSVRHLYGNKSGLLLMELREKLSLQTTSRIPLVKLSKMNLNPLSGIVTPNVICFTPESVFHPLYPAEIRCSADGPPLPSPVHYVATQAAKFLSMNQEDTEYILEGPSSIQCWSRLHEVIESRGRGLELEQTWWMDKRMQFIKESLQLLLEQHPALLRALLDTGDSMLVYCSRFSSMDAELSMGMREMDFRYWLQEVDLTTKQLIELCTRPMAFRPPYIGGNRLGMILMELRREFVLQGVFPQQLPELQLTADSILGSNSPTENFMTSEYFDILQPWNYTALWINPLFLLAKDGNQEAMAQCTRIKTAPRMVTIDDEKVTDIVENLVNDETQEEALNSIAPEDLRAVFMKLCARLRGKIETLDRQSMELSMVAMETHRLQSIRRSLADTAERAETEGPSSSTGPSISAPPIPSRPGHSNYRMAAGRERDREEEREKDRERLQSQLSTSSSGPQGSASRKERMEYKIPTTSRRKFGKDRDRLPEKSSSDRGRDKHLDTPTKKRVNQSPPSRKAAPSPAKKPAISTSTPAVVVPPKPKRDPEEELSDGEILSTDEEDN
UniProt P18334: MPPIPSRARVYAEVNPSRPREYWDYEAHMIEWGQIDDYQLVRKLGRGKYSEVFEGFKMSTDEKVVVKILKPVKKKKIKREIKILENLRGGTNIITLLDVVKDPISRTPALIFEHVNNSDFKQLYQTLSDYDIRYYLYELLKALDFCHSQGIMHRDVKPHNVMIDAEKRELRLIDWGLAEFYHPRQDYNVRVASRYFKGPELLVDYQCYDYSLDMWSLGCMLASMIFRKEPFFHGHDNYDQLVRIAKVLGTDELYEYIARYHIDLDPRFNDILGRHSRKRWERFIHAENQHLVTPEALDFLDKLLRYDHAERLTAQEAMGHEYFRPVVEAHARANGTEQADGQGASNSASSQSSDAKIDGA
UniProt Q94050: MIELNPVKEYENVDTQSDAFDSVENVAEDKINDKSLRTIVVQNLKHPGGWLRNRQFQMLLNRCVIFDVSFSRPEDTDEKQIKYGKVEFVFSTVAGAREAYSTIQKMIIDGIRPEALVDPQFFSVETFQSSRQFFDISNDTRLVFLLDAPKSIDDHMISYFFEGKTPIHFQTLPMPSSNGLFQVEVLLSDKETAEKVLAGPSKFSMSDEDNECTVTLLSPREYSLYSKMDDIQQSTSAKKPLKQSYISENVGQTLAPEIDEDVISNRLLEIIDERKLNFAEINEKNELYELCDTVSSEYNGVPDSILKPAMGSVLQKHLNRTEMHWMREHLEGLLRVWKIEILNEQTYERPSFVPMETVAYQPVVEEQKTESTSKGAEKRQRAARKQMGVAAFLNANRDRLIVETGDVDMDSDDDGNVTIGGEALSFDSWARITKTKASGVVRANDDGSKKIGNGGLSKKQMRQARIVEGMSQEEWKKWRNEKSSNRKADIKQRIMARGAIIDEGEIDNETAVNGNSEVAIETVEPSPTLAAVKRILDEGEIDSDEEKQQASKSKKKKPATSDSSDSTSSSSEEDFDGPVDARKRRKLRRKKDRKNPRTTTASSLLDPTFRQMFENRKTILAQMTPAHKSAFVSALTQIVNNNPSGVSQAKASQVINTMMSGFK
UniProt P91918: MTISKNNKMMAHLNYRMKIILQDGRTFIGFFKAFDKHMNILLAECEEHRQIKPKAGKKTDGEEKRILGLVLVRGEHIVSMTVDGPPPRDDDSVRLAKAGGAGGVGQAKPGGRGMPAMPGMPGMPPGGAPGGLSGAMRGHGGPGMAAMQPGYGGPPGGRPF
UniProt Q9U2F5: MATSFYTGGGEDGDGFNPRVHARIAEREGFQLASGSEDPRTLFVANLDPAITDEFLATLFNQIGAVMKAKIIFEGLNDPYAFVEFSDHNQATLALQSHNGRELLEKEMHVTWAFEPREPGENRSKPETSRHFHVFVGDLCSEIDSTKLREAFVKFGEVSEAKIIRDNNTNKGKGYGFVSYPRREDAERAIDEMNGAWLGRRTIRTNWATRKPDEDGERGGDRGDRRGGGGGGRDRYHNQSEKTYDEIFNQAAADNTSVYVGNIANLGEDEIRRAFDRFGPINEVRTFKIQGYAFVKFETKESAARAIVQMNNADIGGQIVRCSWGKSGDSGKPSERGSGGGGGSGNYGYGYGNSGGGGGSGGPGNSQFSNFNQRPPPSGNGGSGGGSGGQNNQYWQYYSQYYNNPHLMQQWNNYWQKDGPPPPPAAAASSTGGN

How the values were obtained:
[1] = molecular target: GFP::SNA-1 (C. elegans (endogenous in embryo extract)) (UniProt O45149); test: affinity purification with mass spectrometry; as a1, but the PE906 embryo extract was pre-treated with 200 units/ml RNase T1 and 5 units/ml RNase A for 1 h at 4°C before the immunoprecipitation
[2] = molecular target: GFP::SNA-1 (C. elegans (endogenous in embryo extract)) (UniProt O45149); test: affinity purification with mass spectrometry; GFP::SNA-1 precipitated from PE906 embryo extract with anti-GFP nanobody agarose beads (GFP-Trap) against control agarose beads, triplicates, 1 h at 4°C; label-free LC-MS/MS (MaxQuant, Perseus; FDR < 0.01, S0 2.5); extract not treated with RNase
[3] = molecular target: SNA-3::GFP (C. elegans (endogenous in embryo extract)) (UniProt Q9GYR5); test: affinity purification with mass spectrometry; SNA-3::GFP precipitated from PE975 embryo extract with anti-GFP nanobody agarose beads against control agarose beads, triplicates; label-free LC-MS/MS; extract not treated with RNase
[4] = molecular target: SNA-3::GFP (C. elegans (endogenous in embryo extract)) (UniProt Q9GYR5); test: condition: only extract pre-treated with RNase A/T1; affinity purification with mass spectrometry; as a3, but the PE975 embryo extract was pre-treated with RNase A/T1 before the immunoprecipitation
[5] = molecular target: GFP::SNA-1 (C. elegans (endogenous in embryo extract)) (UniProt O45149); test: condition: only extract pre-treated with RNase A and RNase T1; affinity purification with mass spectrometry; as a1, but the PE906 embryo extract was pre-treated with 200 units/ml RNase T1 and 5 units/ml RNase A for 1 h at 4°C before the immunoprecipitation
[6] = molecular target: SNA-3::GFP (C. elegans (endogenous in embryo extract)) (UniProt Q9GYR5); test: affinity purification with mass spectrometry; as a3, but the PE975 embryo extract was pre-treated with RNase A/T1 before the immunoprecipitation
[7] = molecular target: SNA-3::GFP (C. elegans (endogenous in embryo extract)) (UniProt Q9GYR5); test: condition: only extract pre-treated with RNase A/T1; affinity purification with mass spectrometry; as a3, but the PE975 embryo extract was pre-treated with RNase A/T1 before the immunoprecipitation; remark: listed apart in the source
[8] = molecular target: SNA-3::GFP (C. elegans (endogenous in embryo extract)) (UniProt Q9GYR5); test: affinity purification with mass spectrometry; SNA-3::GFP precipitated from PE975 embryo extract with anti-GFP nanobody agarose beads against control agarose beads, triplicates; label-free LC-MS/MS; extract not treated with RNase; remark: listed apart in the source
[9] = molecular target: GFP::SNA-1 (C. elegans (endogenous in embryo extract)) (UniProt O45149); test: affinity purification with mass spectrometry; GFP::SNA-1 precipitated from PE906 embryo extract with anti-GFP nanobody agarose beads (GFP-Trap) against control agarose beads, triplicates, 1 h at 4°C; label-free LC-MS/MS (MaxQuant, Perseus; FDR < 0.01, S0 2.5); extract not treated with RNase; remark: listed apart in the source

| binding [1] | binding [2] | binding [3] | Molecule | further results |
| --- | --- | --- | --- | --- |
| binds | binds | – | KIN-3 (from UniProt P18334 1-360) (enzyme) | – |
| binds | binds | no binding | SNA-2 (from UniProt Q94050) | – |
| – | binds | binds | SNR-2 (from UniProt P91918 1-160) | binding [4]: no binding; binding [5]: no binding |
| – | no binding | binds | TIAR-2 (from UniProt Q9U2F5) | binding [6]: binds |
| – | – | – | E01A2.2 (protein, UniProt Q966L5 1-712) MVDSDDDGDRRRDKFARERRDEDYRRGGGGFNRYDNKRPGGRRDDYQVKRSRGDDADDSFDPVSRSGNGSDLPTESDSIYSGPLQTFKKFLTSQEDDISEEDAIKKYNEYKTEHRKHQLERFFRAHKDEEWFRLKYKPDDAKKLREAHLENVQKRLQVFNELKEQGQFNKFSLDFGDAEAIIRMLDSVVVKLENGTEDELKAVLAQKLEDESLADIKKDENGNGTEQPKEEPEVKQESGATEELEEGAIEDGTEKSSNKVNIHRTCSVFLRNIPPGLTYEELEGLCKKSPGFLRLALTDGIAERKFYRRGWATFKRDINIKEICWALNAHRLRETDLNAIINRDITRRVRTNNGIASHKQVAINDLKLAVKLTVLYDKKIGLFNAADEADADREMDIRMGVDLVAASTNPLIKEVKSLVPHDVLNDISEEEAELLGVSNGGEAPAEKIRFERDDNILKALDLLIVYLRIVHSIDFYNHGHYAQEDSMPNRCGLIHVRGQPPSGVSITTDEDGALVVPQKFVNDFISGFNSRIEKGLIEKQYVSEEELEKMGKKDGEKEVEAFIQKNTVELAKDKWLCPLSGKKFKGPEFIRKHLQSKHEDKLEEARAEADFFNNYLADAQRPVDCEPKQAPRDDHRGGGGGERGGYGRERDDDRGPGGGGRNSFGGGGYDRRPQFPPRHSLGGRGGGGRYFEDAPRRQPVSYRDLDAPDDIP | binding [7]: no binding; binding [8]: binds; binding [9]: no binding |

Results are given in words; binding and its absence hold for the method and conditions named. Binding seen in cells or lysates may run through a third protein. A yes stands for co-enrichment or nearness to the bait. Other partners may have been found. For part of these data: A no says only that the protein was not detected with the bait.
